Assay results taken from publication PMC4995487, “Tyrosine phosphorylation and protein degradation control the transcriptional activity of WRKY involved in benzylisoquinoline alkaloid biosynthesis”.
Substitutions are numbered along the chain they refer to. A weaker result is weaker than the reference pair of the same experiment. Where a protein sequence is shown, tags need not be part of it.

Tests used:
Experiment in all cases: EMSA
[1] = target: T1, GST-CjWRKY1 Y115E (Coptis japonica) (UniProt A0ZT25); conditions: 0.05 ug/ul poly(dI-dC), 1 mM MgCl2, lowest of the mutants, EMSA: 20 fmol biotin probe, 3 ug protein, 1x LightShift binding buffer, 1 mM MgCl2, 0.5 mM EDTA, 20 min at 4 C, 5% polyacrylamide gel, recombinant protein, residues 1-185, protein details: N-terminal GST (pGEX-6P-1), label: biotin
T1 sequence (looked up): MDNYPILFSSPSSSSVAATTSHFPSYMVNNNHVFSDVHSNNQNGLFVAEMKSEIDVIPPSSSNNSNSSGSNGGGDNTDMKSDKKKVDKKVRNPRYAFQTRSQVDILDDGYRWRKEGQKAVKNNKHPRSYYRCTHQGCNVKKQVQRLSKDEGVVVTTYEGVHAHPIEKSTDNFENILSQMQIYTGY

[2] = target: T2, GST-CjWRKY1 Y115L (Coptis japonica) (UniProt A0ZT25); conditions: 0.05 ug/ul poly(dI-dC), 1 mM MgCl2, higher than Y115E, EMSA: 20 fmol biotin probe, 3 ug protein, 1x LightShift binding buffer, 1 mM MgCl2, 0.5 mM EDTA, 20 min at 4 C, 5% polyacrylamide gel, recombinant protein, residues 1-185, protein details: N-terminal GST (pGEX-6P-1), label: biotin
T2 sequence (looked up): T1 sequence (looked up) with E115L

[3] = target: T3, GST-CjWRKY1 Y115F (Coptis japonica) (UniProt A0ZT25); conditions: 0.05 ug/ul poly(dI-dC), 1 mM MgCl2, higher than Y115E, EMSA: 20 fmol biotin probe, 3 ug protein, 1x LightShift binding buffer, 1 mM MgCl2, 0.5 mM EDTA, 20 min at 4 C, 5% polyacrylamide gel, recombinant protein, residues 1-185, protein details: N-terminal GST (pGEX-6P-1), label: biotin
T3 sequence (looked up): T1 sequence (looked up) with E115F

Measured: binding result

CTGCTGACTAGCTGACTAGCTGACTAGATGG (double strand) [3x W-box probe (CYP80B2 promoter)]
binds more weakly: [1] | [2] | [3]
